From patent US5120735A, “Antifungal composition” (Kaken Pharmaceutical Co., Ltd., priority 1987, dated 1992)

Tested on: Candida albicans MTU 12021
Test: Agar dilution MIC, single and combined use
Assay type: cell-based
Settings: Sabouraud agar, 37° C., 48 hours
Protocol: (1) The effects of the combined use of Compound 1 with various imidazole antifungal agents against Candida albicans MTU 12021 strain were examined as follows. […] Then, distilled water containing 0.1% by weight of Tween 80 was added thereto to obtain drug solutions having a concentration of from 1 to 1,000 μg/ml.
1 ml of each drug solution diluted twice was introduced into a sterilized Petri dish, and 8 ml of Sabouraud agar medium was added to prepare a agar plate. Thus, a series of agar plates for the combinations having various concentrations were prepared.
Candida albicans MTU 12021 strain cultured on a Sabouraud agar medium for 24 hours, was suspended in a saline, and a cells suspension having a concentration of 2×10^6 spores/ml was prepared by counting the number of spores by a hemacytometer. Then, 50 μl of the cells suspension was inoculated to the above agar plates by means of a microplanter (manufactured by Sakuma Seisakusho). The inoculated agar plates were cultured at 37° C. for 48 hours, whereupon the presence or absence of the growth of the strain was examined.
Culture medium: Sabouraud agar medium
Culturing condition: 37° C. for 48 hours
Strain used: Candida albicans MTU 12021

MIC (Candida albicans, MTU12021, single use, read-out: Minimum Inhibitory Concentration (MIC)): 100 µg/mL
Minimum Inhibitory Concentration (MIC) of the agent combined with Compound 1 (combined with Compound 1 at 100 μg/ml): 6.25 µg/mL
Structure (SMILES): Clc1ccc(CO/N=C(\Cn2ccnc2)c2ccc(Cl)cc2Cl)c(Cl)c1 [oxiconazole]
